Laboratory results: patent US9284543B2, “Neutral active soluble truncated PH20 polypeptides and uses thereof” (Halozyme, Inc., priority 2008, dated 2016)

B1: SPAM1-STLS: C-terminally truncated human PH20, precursor 490 aa (SEQ ID NO:13), mature 455 aa (SEQ ID NO:65) (protein, listed as Homo sapiens)
chain 1: MGVLKFKHIFFRSFVKSSGVSQIVFTFLLIPCCLTLNFRAPPVIPNVPFLWAWNAPSEFCLGKFDEPLDMSLFSFIGSPRINATGQGVTIFYVDRLGYYPYIDSITGVTVNGGIPQKISLQDHLDKAKKDITFYMPVDNLGMAVIDWEEWRPTWARNWKPKDVYKNRSIELVQQQNVQLSLTEATEKAKQEFEKAGKDFLVETIKLGKLLRPNHLWGYYLFPDCYNHHYKKPGYNGSCFNVEIKRNDDLSWLWNESTALYPSIYLNTQQSPVAATLYVRNRVREAIRVSKIPDAKSPLPVFAYTRIVFTDQVLKFLSQDELVYTFGETVALGASGIVIWGTLSIMRSMKSCLLLDNYMETILNPYIINVTLAAKMCSQVLCQEQGVCIRKNWNSSDYLHLNPDNFAIQLEKGGKFTVRGKPTLEDLEQFSEKFYCSCYSTLSCKEKADVKDTDAVDVCIADGVCIDAFLKPPMETEEPQIFYNASPSTLS
chain 2: LNFRAPPVIPNVPFLWAWNAPSEFCLGKFDEPLDMSLFSFIGSPRINATGQGVTIFYVDRLGYYPYIDSITGVTVNGGIPQKISLQDHLDKAKKDITFYMPVDNLGMAVIDWEEWRPTWARNWKPKDVYKNRSIELVQQQNVQLSLTEATEKAKQEFEKAGKDFLVETIKLGKLLRPNHLWGYYLFPDCYNHHYKKPGYNGSCFNVEIKRNDDLSWLWNESTALYPSIYLNTQQSPVAATLYVRNRVREAIRVSKIPDAKSPLPVFAYTRIVFTDQVLKFLSQDELVYTFGETVALGASGIVIWGTLSIMRSMKSCLLLDNYMETILNPYIINVTLAAKMCSQVLCQEQGVCIRKNWNSSDYLHLNPDNFAIQLEKGGKFTVRGKPTLEDLEQFSEKFYCSCYSTLSCKEKADVKDTDAVDVCIADGVCIDAFLKPPMETEEPQIFYNASPSTLS
modifications: HuPH20 precursor 1-490; mature HuPH20 36-490
B2: SPAM1-SATM: C-terminally truncated human PH20, precursor 493 aa (SEQ ID NO:10), mature 458 aa (SEQ ID NO:62) (protein, listed as Homo sapiens)
chain 1: MGVLKFKHIFFRSFVKSSGVSQIVFTFLLIPCCLTLNFRAPPVIPNVPFLWAWNAPSEFCLGKFDEPLDMSLFSFIGSPRINATGQGVTIFYVDRLGYYPYIDSITGVTVNGGIPQKISLQDHLDKAKKDITFYMPVDNLGMAVIDWEEWRPTWARNWKPKDVYKNRSIELVQQQNVQLSLTEATEKAKQEFEKAGKDFLVETIKLGKLLRPNHLWGYYLFPDCYNHHYKKPGYNGSCFNVEIKRNDDLSWLWNESTALYPSIYLNTQQSPVAATLYVRNRVREAIRVSKIPDAKSPLPVFAYTRIVFTDQVLKFLSQDELVYTFGETVALGASGIVIWGTLSIMRSMKSCLLLDNYMETILNPYIINVTLAAKMCSQVLCQEQGVCIRKNWNSSDYLHLNPDNFAIQLEKGGKFTVRGKPTLEDLEQFSEKFYCSCYSTLSCKEKADVKDTDAVDVCIADGVCIDAFLKPPMETEEPQIFYNASPSTLSATM
chain 2: LNFRAPPVIPNVPFLWAWNAPSEFCLGKFDEPLDMSLFSFIGSPRINATGQGVTIFYVDRLGYYPYIDSITGVTVNGGIPQKISLQDHLDKAKKDITFYMPVDNLGMAVIDWEEWRPTWARNWKPKDVYKNRSIELVQQQNVQLSLTEATEKAKQEFEKAGKDFLVETIKLGKLLRPNHLWGYYLFPDCYNHHYKKPGYNGSCFNVEIKRNDDLSWLWNESTALYPSIYLNTQQSPVAATLYVRNRVREAIRVSKIPDAKSPLPVFAYTRIVFTDQVLKFLSQDELVYTFGETVALGASGIVIWGTLSIMRSMKSCLLLDNYMETILNPYIINVTLAAKMCSQVLCQEQGVCIRKNWNSSDYLHLNPDNFAIQLEKGGKFTVRGKPTLEDLEQFSEKFYCSCYSTLSCKEKADVKDTDAVDVCIADGVCIDAFLKPPMETEEPQIFYNASPSTLSATM
modifications: HuPH20 precursor 1-493; esHuPH20 36-493
B3: SPAM1-PSTL: C-terminally truncated human PH20, precursor 489 aa (SEQ ID NO:12), mature 454 aa (SEQ ID NO:64) (protein, listed as Homo sapiens)
chain 1: MGVLKFKHIFFRSFVKSSGVSQIVFTFLLIPCCLTLNFRAPPVIPNVPFLWAWNAPSEFCLGKFDEPLDMSLFSFIGSPRINATGQGVTIFYVDRLGYYPYIDSITGVTVNGGIPQKISLQDHLDKAKKDITFYMPVDNLGMAVIDWEEWRPTWARNWKPKDVYKNRSIELVQQQNVQLSLTEATEKAKQEFEKAGKDFLVETIKLGKLLRPNHLWGYYLFPDCYNHHYKKPGYNGSCFNVEIKRNDDLSWLWNESTALYPSIYLNTQQSPVAATLYVRNRVREAIRVSKIPDAKSPLPVFAYTRIVFTDQVLKFLSQDELVYTFGETVALGASGIVIWGTLSIMRSMKSCLLLDNYMETILNPYIINVTLAAKMCSQVLCQEQGVCIRKNWNSSDYLHLNPDNFAIQLEKGGKFTVRGKPTLEDLEQFSEKFYCSCYSTLSCKEKADVKDTDAVDVCIADGVCIDAFLKPPMETEEPQIFYNASPSTL
chain 2: LNFRAPPVIPNVPFLWAWNAPSEFCLGKFDEPLDMSLFSFIGSPRINATGQGVTIFYVDRLGYYPYIDSITGVTVNGGIPQKISLQDHLDKAKKDITFYMPVDNLGMAVIDWEEWRPTWARNWKPKDVYKNRSIELVQQQNVQLSLTEATEKAKQEFEKAGKDFLVETIKLGKLLRPNHLWGYYLFPDCYNHHYKKPGYNGSCFNVEIKRNDDLSWLWNESTALYPSIYLNTQQSPVAATLYVRNRVREAIRVSKIPDAKSPLPVFAYTRIVFTDQVLKFLSQDELVYTFGETVALGASGIVIWGTLSIMRSMKSCLLLDNYMETILNPYIINVTLAAKMCSQVLCQEQGVCIRKNWNSSDYLHLNPDNFAIQLEKGGKFTVRGKPTLEDLEQFSEKFYCSCYSTLSCKEKADVKDTDAVDVCIADGVCIDAFLKPPMETEEPQIFYNASPSTL
modifications: HuPH20 precursor 1-489; mature HuPH20 36-489
B4: SPAM1-TMFI: C-terminally truncated human PH20, precursor 495 aa (SEQ ID NO:9), mature 460 aa (SEQ ID NO:61) (protein, listed as Homo sapiens)
chain 1: MGVLKFKHIFFRSFVKSSGVSQIVFTFLLIPCCLTLNFRAPPVIPNVPFLWAWNAPSEFCLGKFDEPLDMSLFSFIGSPRINATGQGVTIFYVDRLGYYPYIDSITGVTVNGGIPQKISLQDHLDKAKKDITFYMPVDNLGMAVIDWEEWRPTWARNWKPKDVYKNRSIELVQQQNVQLSLTEATEKAKQEFEKAGKDFLVETIKLGKLLRPNHLWGYYLFPDCYNHHYKKPGYNGSCFNVEIKRNDDLSWLWNESTALYPSIYLNTQQSPVAATLYVRNRVREAIRVSKIPDAKSPLPVFAYTRIVFTDQVLKFLSQDELVYTFGETVALGASGIVIWGTLSIMRSMKSCLLLDNYMETILNPYIINVTLAAKMCSQVLCQEQGVCIRKNWNSSDYLHLNPDNFAIQLEKGGKFTVRGKPTLEDLEQFSEKFYCSCYSTLSCKEKADVKDTDAVDVCIADGVCIDAFLKPPMETEEPQIFYNASPSTLSATMFI
chain 2: LNFRAPPVIPNVPFLWAWNAPSEFCLGKFDEPLDMSLFSFIGSPRINATGQGVTIFYVDRLGYYPYIDSITGVTVNGGIPQKISLQDHLDKAKKDITFYMPVDNLGMAVIDWEEWRPTWARNWKPKDVYKNRSIELVQQQNVQLSLTEATEKAKQEFEKAGKDFLVETIKLGKLLRPNHLWGYYLFPDCYNHHYKKPGYNGSCFNVEIKRNDDLSWLWNESTALYPSIYLNTQQSPVAATLYVRNRVREAIRVSKIPDAKSPLPVFAYTRIVFTDQVLKFLSQDELVYTFGETVALGASGIVIWGTLSIMRSMKSCLLLDNYMETILNPYIINVTLAAKMCSQVLCQEQGVCIRKNWNSSDYLHLNPDNFAIQLEKGGKFTVRGKPTLEDLEQFSEKFYCSCYSTLSCKEKADVKDTDAVDVCIADGVCIDAFLKPPMETEEPQIFYNASPSTLSATMFI
modifications: HuPH20 precursor 1-495; esHuPH20 36-495
B5: SPAM1-ASPS: C-terminally truncated human PH20, precursor 487 aa (SEQ ID NO:14), mature 452 aa (SEQ ID NO:66) (protein, listed as Homo sapiens)
chain: MGVLKFKHIFFRSFVKSSGVSQIVFTFLLIPCCLTLNFRAPPVIPNVPFLWAWNAPSEFCLGKFDEPLDMSLFSFIGSPRINATGQGVTIFYVDRLGYYPYIDSITGVTVNGGIPQKISLQDHLDKAKKDITFYMPVDNLGMAVIDWEEWRPTWARNWKPKDVYKNRSIELVQQQNVQLSLTEATEKAKQEFEKAGKDFLVETIKLGKLLRPNHLWGYYLFPDCYNHHYKKPGYNGSCFNVEIKRNDDLSWLWNESTALYPSIYLNTQQSPVAATLYVRNRVREAIRVSKIPDAKSPLPVFAYTRIVFTDQVLKFLSQDELVYTFGETVALGASGIVIWGTLSIMRSMKSCLLLDNYMETILNPYIINVTLAAKMCSQVLCQEQGVCIRKNWNSSDYLHLNPDNFAIQLEKGGKFTVRGKPTLEDLEQFSEKFYCSCYSTLSCKEKADVKDTDAVDVCIADGVCIDAFLKPPMETEEPQIFYNASPS
modifications: HuPH20 precursor 1-487
B6: SPAM1-TLSA: C-terminally truncated human PH20, precursor 491 aa (SEQ ID NO:11), mature 456 aa (SEQ ID NO:63) (protein, listed as Homo sapiens)
chain 1: MGVLKFKHIFFRSFVKSSGVSQIVFTFLLIPCCLTLNFRAPPVIPNVPFLWAWNAPSEFCLGKFDEPLDMSLFSFIGSPRINATGQGVTIFYVDRLGYYPYIDSITGVTVNGGIPQKISLQDHLDKAKKDITFYMPVDNLGMAVIDWEEWRPTWARNWKPKDVYKNRSIELVQQQNVQLSLTEATEKAKQEFEKAGKDFLVETIKLGKLLRPNHLWGYYLFPDCYNHHYKKPGYNGSCFNVEIKRNDDLSWLWNESTALYPSIYLNTQQSPVAATLYVRNRVREAIRVSKIPDAKSPLPVFAYTRIVFTDQVLKFLSQDELVYTFGETVALGASGIVIWGTLSIMRSMKSCLLLDNYMETILNPYIINVTLAAKMCSQVLCQEQGVCIRKNWNSSDYLHLNPDNFAIQLEKGGKFTVRGKPTLEDLEQFSEKFYCSCYSTLSCKEKADVKDTDAVDVCIADGVCIDAFLKPPMETEEPQIFYNASPSTLSA
chain 2: LNFRAPPVIPNVPFLWAWNAPSEFCLGKFDEPLDMSLFSFIGSPRINATGQGVTIFYVDRLGYYPYIDSITGVTVNGGIPQKISLQDHLDKAKKDITFYMPVDNLGMAVIDWEEWRPTWARNWKPKDVYKNRSIELVQQQNVQLSLTEATEKAKQEFEKAGKDFLVETIKLGKLLRPNHLWGYYLFPDCYNHHYKKPGYNGSCFNVEIKRNDDLSWLWNESTALYPSIYLNTQQSPVAATLYVRNRVREAIRVSKIPDAKSPLPVFAYTRIVFTDQVLKFLSQDELVYTFGETVALGASGIVIWGTLSIMRSMKSCLLLDNYMETILNPYIINVTLAAKMCSQVLCQEQGVCIRKNWNSSDYLHLNPDNFAIQLEKGGKFTVRGKPTLEDLEQFSEKFYCSCYSTLSCKEKADVKDTDAVDVCIADGVCIDAFLKPPMETEEPQIFYNASPSTLSA
modifications: HuPH20 precursor 1-491; esHuPH20 36-491

Test system: CHO-S cells
Test: Western blot analysis of PH20 expression in media and cells after transient expression
Type: cell-based, Chinese Hamster
Settings: band at approximately 66 kDa
In short: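 PH20 expression and solubility were judged by anti-PH20 Western blot of non-reduced media and cell fractions, with expression shown by a ~66 kDa band. Samples came from CHO-S cells transiently transfected (GeneJuice) with mutant PH20-HZ24 DNA and cultured 48-72 h. GPI-anchored mutants were cleaved with PI-PLC to release soluble protein.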

Molecule	Protein Expression
B1	YES
B2	YES
B3	YES
B4	YES
B5	YES
B6	YES
